{
  "source": "patent US5422351A",
  "about": "“Bis-benzo or benzopyrido cyclohepta piperidene, piperidylidene and piperazine compounds, compositions and methods of use” (Schering Corporation, priority 1992, dated 1995)",
  "system": "PAF-induced platelet aggregation (human platelet-rich plasma)",
  "assay": "PAF-induced platelet aggregation (in vitro)",
  "assay_type": "cell-based",
  "settings": "PAF 1-5×10^-8 M, read-out: PAF Antagonism (in vitro) IC50",
  "method": "Platelet-activating factor (PAF) causes aggregation of platelets by a receptor-mediated mechanism. Therefore, PAF-induced platelet aggregation provides a simple and convenient assay to screen compounds for PAF antagonism.\nBlood was centrifuged at 110× g for 15 min. and the supernatant platelet-rich plasma (PRP) carefully transferred into a polypropylene tube. Platelet-poor-plasma (PPP) was prepared by centrifuging PRP at 12,000× g for 2 min. (Beckman Microfuge B). PRP was used within 3 hr. of drawing the blood.\nPAF was dissolved in chloroform:methanol (1:1, v/v) at a concentration of 2 mg/ml and stored at -70° C. An aliquot of this solution was transferred to a polypropylene tube and dried under a flow of nitrogen gas. […] This stock solution was further diluted to appropriate concentrations in Hepes-saline-BSA buffer. Collagen (Sigma) and adenosine diphosphate (ADP) (Sigma) were purchased as solutions. […]\nWhen an aggregating agent such as PAF is added to PRP, platelets aggregate. An aggregometer quantifies this aggregation by measuring and comparing light (infra-red) transmission through PPP and PRP. […] Values for inhibition were calculated by comparing rates of aggregation obtained in the absence and the presence of the compound. […]",
  "data": [
    {"smiles": "CCOC(=O)N1CCC(=C2c3ccc(Cl)cc3CCc3cccnc32)CC1", "note": "[Compound 1, reference compound]", "values": [
      {"measurement": "IC50", "value": 175, "unit": "µM"}
    ]}
  ]
}
